Data on 1 molecule can be found in patent US20220403031A1.

The target in one experiment is CD22.his. Kind of experiment: non-specific binding ELISA, antigen coated at 2 ug/mL. In general terms: ELISA stands for enzyme-linked immunosorbent assay.
For a further experiment, the target named is FGFR.his. The experiment is described as above.

These are yes or no findings as the source states them, for the method shown.

B1: AP3R2-1A3-z12-hIgG1 (Fc fusion, not shown: a dimerising Fc or GST)
chain: EVQLVESGGGLVQPGGSLRLSCAASGHFSNLAVNWFRQAPGKERELVAGILWSGGSTFYADSVKGRFTISRGNAENMLYLQMNSLRAEDTAVYYCNTGTNWGQGTLVTVSS
In the case of B1, the binding result with CD22.his and with FGFR.his was “no binding (tested: 10 µg/ml)” in each case.
